According to article PMC3610344, “Differential Cytotoxicity Responses by Dog and Rat Hepatocytes to Phospholipogenic Treatments” (Journal of Toxicology, 2013):

Tests used:
dog hepatocytes = experiment: Cell survival of primary dog hepatocytes (Cellomics Arrayscan); format: cell-based; settings: Canis lupus familiaris, Hepatocyte, 24 h, 24 h treatment
Description: Primary rat hepatocytes were freshly isolated from Han Wistar rats at AstraZeneca, using the collagenase perfusion method (Selgen, PO, 1976). Primary dog hepatocytes were isolated at AstraZeneca, or purchased from CellzDirect Corp. (Durham, NC), which also uses a collagenase perfusion method. […]
In a modification of the procedure described by Morelli et al., hepatocytes were treated with drugs diluted into culture media containing 12 μg/mL NBD-PE (N-(7-nitrobenz-2-oxa-1,3-diazol-4-yl)-1,2-dihexadecanoyl-sn-glycero-3-phosphoethanolamine, triethylammonium salt) for 24 hours. […] This fluorescent dye stains only cells with compromised cell membranes thereby enabling their exclusion from NBD-PE cell quantitation by the Cellomics ArrayScan instrument. […] Labeled cells were analyzed using the Cellomics Arrayscan instrument (Cellomics Inc., Pittsburgh, PA) with version 3.5 equipment and software. The ArrayScan captures fluorescent images in the 3 channels relevant to this assay (Hoechst, TRITC for Sytox staining and FITC for NBD-PE staining) and performs automated image analysis to quantify cell nuclei, the number of dead cells, and NBD-PE dye fluorescent intensity. […]

rat hepatocytes = experiment: cells; format: cell-based; settings: Hepatocyte, 24 h, 24 h treatment, read-out: Survival IC50

CNCCC(Oc1ccc(C(F)(F)F)cc1)c1ccccc1 (centres unmarked) [Fluoxetine, reference compound] was tested, and the IC50 (dog hepatocytes) was 19 µM and the IC50 (rat hepatocytes) was 61 µM.
